# Results published in patent US20180117013A1, “METHODS OF TREATING LIVER DISEASE USING INDANE ACETIC ACID DERIVATIVES” (T3D THERAPEUTICS, INC., priority 2015, published 2018).
# At least one compound was matched to its structure with a doubt left.
# Tested on: high fat diet ZDF rats
# Assay: NAFLD/NASH animal model, high fat diet ZDF rats
# Format: in vivo, rat
# Settings: high fat diet ZDF male rats; 3 mg/kg PO q.d. for 5 weeks
# Description: Twelve week old ZDF male rats (n=6 per group) were acclimated for 3 weeks prior to study initiation then fed with either a high fat (D12492+0.5% added cholesterol with 55% wt/vol fructose in drinking water) or low fat (DL12405J) diets. The compound of Example 10 above, vehicle, or pioglitizone were administered by oral gavage q.d. for 5 weeks as described in Table 1.
# Body weights were recorded weekly, and blood samples were collected from all animals at the end of weeks 4, 5, 6 and 7 following an overnight fast, and triglycerides, cholesterol, AST, ALT, insulin, and BG were measured in singlet. After week 8, the livers were harvested from all animals and weighed. The left lobe was placed in 10% NBF for NASH scoring by PAI (H % E staining, Oil Red O staining and Sirius Red staining). One half of the right lobe was snap-frozen for qPCR (to quantify type 1 collagen, insulin receptor, IGF-1, ceramide synthase 2, sphingomyelin phosphodiesterase 3, MCP-1 and IL-6). The remaining right lobe was snap-frozen for estimation of liver triglycerides and cholesterol.
smiles,measurement,value
CCc1ccc(CCOc2ccc(CC3SC(=O)NC3=O)cc2)nc1 (stereo not shown) [pioglitizone],protection from NASH like symptoms,protection from NASH like symptoms
